# Measured values reported in the supplement of paper PMC7666118.
# By UniProt entry, the sequences of proteins in these tests, tags left out. Where a name states a change or a piece, a line headed by the entry shows the natural chain unless it says otherwise.
# UniProt Q9Y6D0, whole entry: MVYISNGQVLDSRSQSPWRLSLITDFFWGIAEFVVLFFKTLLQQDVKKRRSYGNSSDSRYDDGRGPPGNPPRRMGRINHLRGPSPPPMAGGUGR
# UniProt Q9NSI8: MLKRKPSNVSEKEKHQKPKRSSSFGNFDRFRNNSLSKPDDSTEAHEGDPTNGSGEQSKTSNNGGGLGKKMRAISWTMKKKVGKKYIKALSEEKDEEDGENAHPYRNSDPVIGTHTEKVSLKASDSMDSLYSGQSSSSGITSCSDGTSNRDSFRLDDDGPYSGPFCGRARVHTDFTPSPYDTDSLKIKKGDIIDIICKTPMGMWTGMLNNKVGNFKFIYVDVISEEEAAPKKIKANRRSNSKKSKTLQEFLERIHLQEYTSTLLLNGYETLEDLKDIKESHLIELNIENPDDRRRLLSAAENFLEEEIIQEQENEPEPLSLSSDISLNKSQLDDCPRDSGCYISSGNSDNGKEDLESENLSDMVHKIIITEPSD
# UniProt O75116: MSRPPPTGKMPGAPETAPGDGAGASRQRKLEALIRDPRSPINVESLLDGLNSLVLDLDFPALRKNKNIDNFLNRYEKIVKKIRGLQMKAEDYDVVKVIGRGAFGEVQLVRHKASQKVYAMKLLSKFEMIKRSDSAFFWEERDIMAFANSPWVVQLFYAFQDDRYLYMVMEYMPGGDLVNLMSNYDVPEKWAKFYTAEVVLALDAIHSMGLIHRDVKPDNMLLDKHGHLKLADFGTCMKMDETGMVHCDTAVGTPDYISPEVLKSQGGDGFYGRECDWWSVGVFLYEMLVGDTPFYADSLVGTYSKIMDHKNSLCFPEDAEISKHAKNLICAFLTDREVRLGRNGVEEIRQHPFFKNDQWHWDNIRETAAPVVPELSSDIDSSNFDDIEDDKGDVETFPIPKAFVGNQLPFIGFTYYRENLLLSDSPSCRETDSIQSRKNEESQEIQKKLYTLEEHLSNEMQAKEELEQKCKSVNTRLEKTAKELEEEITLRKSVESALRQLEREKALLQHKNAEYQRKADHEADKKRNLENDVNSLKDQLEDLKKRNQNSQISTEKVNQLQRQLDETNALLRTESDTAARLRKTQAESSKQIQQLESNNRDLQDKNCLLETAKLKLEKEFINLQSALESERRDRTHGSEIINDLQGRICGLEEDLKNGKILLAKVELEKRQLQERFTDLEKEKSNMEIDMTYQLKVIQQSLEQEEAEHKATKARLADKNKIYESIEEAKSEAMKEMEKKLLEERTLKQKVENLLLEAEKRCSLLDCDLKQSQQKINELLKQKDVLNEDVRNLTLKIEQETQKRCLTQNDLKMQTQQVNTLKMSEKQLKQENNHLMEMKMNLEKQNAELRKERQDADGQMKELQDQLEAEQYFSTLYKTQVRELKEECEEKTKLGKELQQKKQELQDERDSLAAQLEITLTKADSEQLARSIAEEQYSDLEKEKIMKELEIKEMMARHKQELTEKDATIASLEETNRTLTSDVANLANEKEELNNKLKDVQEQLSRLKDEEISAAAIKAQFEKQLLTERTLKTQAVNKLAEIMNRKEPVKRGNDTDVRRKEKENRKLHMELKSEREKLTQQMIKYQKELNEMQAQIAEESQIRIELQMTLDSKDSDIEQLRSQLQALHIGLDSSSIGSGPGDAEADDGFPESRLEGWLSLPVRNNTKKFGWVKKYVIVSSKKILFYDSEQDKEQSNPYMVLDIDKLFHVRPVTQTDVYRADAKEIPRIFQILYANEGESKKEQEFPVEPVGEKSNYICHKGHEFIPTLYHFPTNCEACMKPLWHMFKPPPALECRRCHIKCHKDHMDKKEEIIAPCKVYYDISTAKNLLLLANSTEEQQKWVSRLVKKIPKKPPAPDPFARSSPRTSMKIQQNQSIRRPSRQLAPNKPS
# UniProt Q96I15: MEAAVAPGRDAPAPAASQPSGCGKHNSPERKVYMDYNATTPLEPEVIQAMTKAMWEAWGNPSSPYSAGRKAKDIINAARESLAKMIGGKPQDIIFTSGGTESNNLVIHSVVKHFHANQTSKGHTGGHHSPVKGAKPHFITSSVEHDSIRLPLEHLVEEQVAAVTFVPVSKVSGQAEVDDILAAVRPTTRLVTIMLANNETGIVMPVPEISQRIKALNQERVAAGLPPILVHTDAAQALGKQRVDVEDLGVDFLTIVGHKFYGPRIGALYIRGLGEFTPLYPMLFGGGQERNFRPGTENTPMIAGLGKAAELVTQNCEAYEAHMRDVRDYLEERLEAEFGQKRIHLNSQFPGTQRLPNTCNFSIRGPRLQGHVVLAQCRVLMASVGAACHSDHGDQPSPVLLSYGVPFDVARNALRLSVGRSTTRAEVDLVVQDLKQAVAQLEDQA
# UniProt Q15424: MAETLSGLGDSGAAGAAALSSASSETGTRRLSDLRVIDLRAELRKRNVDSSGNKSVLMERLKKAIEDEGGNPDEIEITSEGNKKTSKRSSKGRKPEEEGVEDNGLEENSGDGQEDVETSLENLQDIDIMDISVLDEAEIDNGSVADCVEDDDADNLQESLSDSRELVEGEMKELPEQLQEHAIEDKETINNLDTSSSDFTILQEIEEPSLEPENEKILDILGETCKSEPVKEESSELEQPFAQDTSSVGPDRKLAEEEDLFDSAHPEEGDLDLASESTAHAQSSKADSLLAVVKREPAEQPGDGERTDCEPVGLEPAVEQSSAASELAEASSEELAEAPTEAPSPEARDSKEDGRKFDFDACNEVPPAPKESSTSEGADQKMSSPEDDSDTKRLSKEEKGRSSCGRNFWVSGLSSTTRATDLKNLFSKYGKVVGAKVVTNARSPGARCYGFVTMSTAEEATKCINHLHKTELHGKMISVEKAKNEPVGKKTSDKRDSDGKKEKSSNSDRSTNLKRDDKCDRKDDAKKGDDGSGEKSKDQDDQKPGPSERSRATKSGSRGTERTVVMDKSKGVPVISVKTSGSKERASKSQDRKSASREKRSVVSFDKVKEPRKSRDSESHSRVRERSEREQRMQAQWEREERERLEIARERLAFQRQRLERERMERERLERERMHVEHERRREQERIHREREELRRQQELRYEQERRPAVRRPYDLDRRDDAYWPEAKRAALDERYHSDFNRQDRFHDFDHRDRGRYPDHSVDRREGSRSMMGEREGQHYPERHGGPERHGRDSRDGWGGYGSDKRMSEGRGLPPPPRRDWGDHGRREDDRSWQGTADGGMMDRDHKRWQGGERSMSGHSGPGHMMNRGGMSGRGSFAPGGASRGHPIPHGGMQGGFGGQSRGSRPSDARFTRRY
# UniProt Q9Y225: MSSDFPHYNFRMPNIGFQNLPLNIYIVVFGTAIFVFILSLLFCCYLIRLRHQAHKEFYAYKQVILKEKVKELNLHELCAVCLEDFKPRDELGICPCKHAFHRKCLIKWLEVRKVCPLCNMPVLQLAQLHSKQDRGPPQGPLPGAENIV
# UniProt P13489: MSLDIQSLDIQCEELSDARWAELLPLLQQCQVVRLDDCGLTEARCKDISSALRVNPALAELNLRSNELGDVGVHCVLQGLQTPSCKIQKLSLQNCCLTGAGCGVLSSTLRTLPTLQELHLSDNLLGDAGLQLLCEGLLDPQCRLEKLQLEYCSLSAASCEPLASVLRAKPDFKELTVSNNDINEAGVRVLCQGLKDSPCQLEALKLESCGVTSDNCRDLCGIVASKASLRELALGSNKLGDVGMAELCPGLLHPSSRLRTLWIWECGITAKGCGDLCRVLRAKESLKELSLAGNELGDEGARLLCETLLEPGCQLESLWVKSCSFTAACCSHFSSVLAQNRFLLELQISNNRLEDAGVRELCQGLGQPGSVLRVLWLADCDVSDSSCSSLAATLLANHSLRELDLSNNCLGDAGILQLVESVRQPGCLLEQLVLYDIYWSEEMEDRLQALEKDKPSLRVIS
# UniProt Q13950, whole entry: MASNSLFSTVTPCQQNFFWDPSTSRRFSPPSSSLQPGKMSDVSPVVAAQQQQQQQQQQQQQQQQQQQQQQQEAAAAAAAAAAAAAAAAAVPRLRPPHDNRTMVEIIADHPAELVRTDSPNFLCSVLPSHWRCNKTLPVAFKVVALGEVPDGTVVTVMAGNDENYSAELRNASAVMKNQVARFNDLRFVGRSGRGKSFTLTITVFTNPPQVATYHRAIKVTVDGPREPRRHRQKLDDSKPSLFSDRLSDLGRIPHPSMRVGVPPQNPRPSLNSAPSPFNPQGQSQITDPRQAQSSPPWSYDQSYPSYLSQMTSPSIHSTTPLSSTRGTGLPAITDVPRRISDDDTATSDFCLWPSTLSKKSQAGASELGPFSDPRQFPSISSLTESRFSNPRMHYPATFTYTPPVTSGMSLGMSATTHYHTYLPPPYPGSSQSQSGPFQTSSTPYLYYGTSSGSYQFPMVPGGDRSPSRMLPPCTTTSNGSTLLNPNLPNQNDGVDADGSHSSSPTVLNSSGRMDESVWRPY
# UniProt P31040: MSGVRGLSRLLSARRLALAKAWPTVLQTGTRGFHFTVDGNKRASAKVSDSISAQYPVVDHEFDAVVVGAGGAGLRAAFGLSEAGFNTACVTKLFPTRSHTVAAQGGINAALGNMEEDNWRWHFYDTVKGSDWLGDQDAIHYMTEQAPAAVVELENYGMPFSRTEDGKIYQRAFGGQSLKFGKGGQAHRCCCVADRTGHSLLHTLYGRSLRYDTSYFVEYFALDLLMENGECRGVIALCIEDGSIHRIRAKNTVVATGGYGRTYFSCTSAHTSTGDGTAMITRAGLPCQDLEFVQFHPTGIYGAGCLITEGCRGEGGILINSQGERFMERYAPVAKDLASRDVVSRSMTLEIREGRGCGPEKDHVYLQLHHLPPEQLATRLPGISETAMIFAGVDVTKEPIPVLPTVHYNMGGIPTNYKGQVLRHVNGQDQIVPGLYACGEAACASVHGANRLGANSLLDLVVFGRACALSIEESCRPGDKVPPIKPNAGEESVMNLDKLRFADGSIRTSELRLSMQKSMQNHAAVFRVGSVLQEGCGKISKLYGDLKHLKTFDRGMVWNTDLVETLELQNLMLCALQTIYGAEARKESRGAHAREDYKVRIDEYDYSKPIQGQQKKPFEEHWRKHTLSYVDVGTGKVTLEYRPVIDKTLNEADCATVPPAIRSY
# UniProt Q9GZR1: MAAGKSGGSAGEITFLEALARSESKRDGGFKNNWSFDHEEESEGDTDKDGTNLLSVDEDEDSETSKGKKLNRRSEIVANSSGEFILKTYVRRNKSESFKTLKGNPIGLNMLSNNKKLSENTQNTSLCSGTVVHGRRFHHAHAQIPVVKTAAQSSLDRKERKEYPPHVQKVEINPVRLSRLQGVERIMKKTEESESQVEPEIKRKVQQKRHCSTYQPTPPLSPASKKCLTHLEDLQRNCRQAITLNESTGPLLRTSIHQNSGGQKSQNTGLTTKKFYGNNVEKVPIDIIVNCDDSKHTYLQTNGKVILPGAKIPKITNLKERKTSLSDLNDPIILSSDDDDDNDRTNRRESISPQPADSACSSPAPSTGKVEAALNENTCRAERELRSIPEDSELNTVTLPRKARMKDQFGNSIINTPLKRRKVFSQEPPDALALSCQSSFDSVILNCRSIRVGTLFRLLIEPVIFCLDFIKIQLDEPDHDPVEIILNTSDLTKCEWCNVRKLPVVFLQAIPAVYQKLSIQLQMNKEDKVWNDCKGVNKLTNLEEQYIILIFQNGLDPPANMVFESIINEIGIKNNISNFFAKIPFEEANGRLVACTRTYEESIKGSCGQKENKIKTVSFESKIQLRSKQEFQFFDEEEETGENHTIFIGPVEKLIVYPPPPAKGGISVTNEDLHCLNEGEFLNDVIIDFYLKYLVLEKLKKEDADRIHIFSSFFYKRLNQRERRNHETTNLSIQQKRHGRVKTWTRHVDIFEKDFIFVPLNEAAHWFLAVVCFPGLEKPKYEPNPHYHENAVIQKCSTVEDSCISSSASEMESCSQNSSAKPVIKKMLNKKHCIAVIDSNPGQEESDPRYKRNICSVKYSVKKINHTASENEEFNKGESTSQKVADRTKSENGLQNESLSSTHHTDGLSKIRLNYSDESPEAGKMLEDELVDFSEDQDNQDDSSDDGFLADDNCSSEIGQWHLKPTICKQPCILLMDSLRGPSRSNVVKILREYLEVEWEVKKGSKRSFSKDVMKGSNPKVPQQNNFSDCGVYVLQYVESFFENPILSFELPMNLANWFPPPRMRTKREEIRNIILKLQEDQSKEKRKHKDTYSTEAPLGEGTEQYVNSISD
# UniProt Q9UGK8: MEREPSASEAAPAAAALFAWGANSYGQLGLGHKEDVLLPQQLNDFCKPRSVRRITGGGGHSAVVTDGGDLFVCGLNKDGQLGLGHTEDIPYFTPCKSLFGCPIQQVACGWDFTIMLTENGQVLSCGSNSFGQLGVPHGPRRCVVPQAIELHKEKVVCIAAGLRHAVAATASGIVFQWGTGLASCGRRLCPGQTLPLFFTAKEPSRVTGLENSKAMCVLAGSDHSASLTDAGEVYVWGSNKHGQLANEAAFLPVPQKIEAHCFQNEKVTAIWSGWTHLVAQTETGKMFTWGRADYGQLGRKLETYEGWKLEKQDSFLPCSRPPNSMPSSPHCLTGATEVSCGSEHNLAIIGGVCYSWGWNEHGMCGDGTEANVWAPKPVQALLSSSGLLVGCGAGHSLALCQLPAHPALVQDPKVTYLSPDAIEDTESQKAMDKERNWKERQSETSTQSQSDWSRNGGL
# The other results are listed elsewhere or left out.
# Compound: COc1ccc(Cn2ccc3cc(C)c(C(=O)NO)cc32)cc1
# Assay: dose-dependent thermal stabilisation call (2D-TPP, DLPTP, 10% FDR) (binary (1 = stabilised)); higher = stabilised by the compound
# Settings: system: HL-60 intact cells; concentration range 0.04-10 µM
# Method: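 2D thermal proteome profiling in intact HL-60 cells treated with BRD-3811 (0, 0.04, 0.29, 2, 10 uM) for 90 min at 37 C, then heated 3 min at one of 12 temperatures (42-63.9 C). Soluble protein was quantified by TMT10 MS. The value is the DLPTP call of the paper: dose-dependent thermal stabilisation over all temperatures at 10% FDR (F-test of a dose-response against a flat model); one experiment, one call per tested protein.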
row,Target,dose-dependent thermal stabilisation call
1,RTN2 (UniProt O75298),inactive: 0
2,RPS23 (UniProt P62266),inactive: 0
3,RPS6KA3 (UniProt P51812),inactive: 0
4,RPL10A (UniProt P62906),inactive: 0
5,RRP1 (UniProt P56182),inactive: 0
6,RPL29 (UniProt P47914),inactive: 0
7,RPAP1 (UniProt Q9BWH6),inactive: 0
8,SELK (UniProt Q9Y6D0),inactive: 0
9,RNF31 (UniProt Q96EP0),inactive: 0
10,SAMSN1 (UniProt Q9NSI8),inactive: 0
11,ROCK2 (UniProt O75116),inactive: 0
12,SCLY (UniProt Q96I15),inactive: 0
13,RPS24 (UniProt P62847),inactive: 0
14,SAFB (UniProt Q15424),inactive: 0
15,SAMD4B (UniProt Q5PRF9),inactive: 0
16,SART3 (UniProt Q15020),inactive: 0
17,RNF24 (UniProt Q9Y225),inactive: 0
18,SEPT2 (UniProt Q15019),inactive: 0

# Copied from the results shown for reference:
row,Target,dose-dependent thermal stabilisation call
3,RPS6KA3 (UniProt P51812),inactive: 0
4,RPL10A (UniProt P62906),inactive: 0

# Next part.

row,Target,dose-dependent thermal stabilisation call
1,RNH1 (UniProt P13489),inactive: 0
2,RUNX2 (UniProt Q13950),inactive: 0
3,RP11-529I10 4,inactive: 0
4,RUVBL2 (UniProt Q9Y230),inactive: 0
5,SDHA (UniProt P31040),inactive: 0
6,SCD5 (UniProt Q86SK9),inactive: 0
7,RPA2 (UniProt P15927),inactive: 0
8,RPE (UniProt Q96AT9),inactive: 0
9,SAPS2 (UniProt O75170),inactive: 0
10,RPL37A (UniProt P61513),inactive: 0
11,RPL23A (UniProt P62750),inactive: 0
12,SENP6 (UniProt Q9GZR1),inactive: 0
13,RPS9 (UniProt P46781),inactive: 0
14,RPL35 (UniProt P42766),inactive: 0
15,RPL12 (UniProt P30050),inactive: 0
16,RP11-345P4 4,inactive: 0
17,SERGEF (UniProt Q9UGK8),inactive: 0
18,SEC24D (UniProt O94855),inactive: 0
